Test results as given in PubChem BioAssay.
Where “and” joins values, the source holds several entries; their conditions need not be identical. Equal values may be shown once. The list shows a part of the results. Entries without a call are filed as inconclusive in the source.

Experiment: PubChem AID 1600
Settings: yeast Parkinson's disease model, growth rescue; stronger effect = higher value
For `Nc1ccc(C(=O)NCC(=O)O)cc1`, the score was 1.13. With `CC/C(=C(/CC)c1ccc(O)cc1)c1ccc(O)cc1` the score was -1.21. For `CC[N+](C)(C)c1cccc(O)c1`, the score was -2.15. For `CN1CCN(C(c2ccccc2)c2ccc(Cl)cc2)CC1` (centres undefined), the score was -0.106. `CC(=O)CC(c1ccccc1)c1c(O)c2ccccc2oc1=O` (centres undefined) showed a score of -0.033. For `C1CCC(C(CC2CCCCN2)C2CCCCC2)CC1` (centres undefined), the score was -1.28. With `CCC(=O)O[C@@H](O[P@](=O)(CCCCc1ccccc1)CC(=O)N1C[C@H](C2CCCCC2)C[C@H]1C(=O)O)C(C)C` the score was -0.458. Work on `CC(C)NCC(O)c1ccc2ccccc2c1` (centres undefined) yielded a score of -0.581. With `Fc1ccc(C(c2ccccc2)(c2ccccc2F)n2ccnc2)cc1` (centres undefined) the score was 1.29 and 3.21. Work on `CC1=NN(c2ccccc2)C(=O)C1` yielded a score of -0.437. `O=C(O)CN(CC(=O)O)Cc1cc2c(-c3ccccc3C(=O)O)c3cc(CN(CC(=O)O)CC(=O)O)c(=O)cc-3oc2cc1O` gave a score of 0.439. With `CC(C)(Oc1ccc(CCNC(=O)c2ccc(Cl)cc2)cc1)C(=O)O` the score was -0.881. `Cc1cc(CC(=O)O)n(C)c1C(=O)c1ccc(Cl)cc1` gave a score of 1.51. `O=C1NS(=O)(=O)c2ccccc21` gave a score of 0.136. Work on `CC(C(=O)O)c1ccc(-c2ccccc2)c(F)c1` (centres undefined) yielded a score of -0.153. Work on `Cc1ccc(S(=O)(=O)NC(=O)NN2CCCCCC2)cc1` yielded a score of -0.399. For `C[C@@H]1O[C@@H](OC[C@H]2O[C@@H](Oc3c(-c4ccc(O)c(O)c4)oc4cc(O)cc(O)c4c3=O)[C@H](O)[C@@H](O)[C@@H]2O)[C@H](O)[C@H](O)[C@H]1O`, the score was -0.406. Compound `Cc1cc(O)cc(C)c1Cl` has a score of -0.674. With `NC(=NCCCCCCN=C(N)/N=C(\N)Nc1ccc(Cl)cc1)/N=C(\N)Nc1ccc(Cl)cc1` the score was -6.63.
